“Also recorded” adds a separate entry of the source. At least one compound was matched to its structure with a doubt left.
Legend:
Akt kinase [1] = experiment: Immunodetection and kinase assay of activated Akt in Schwann cells; settings: LY294002 30 minutes before CD 500 ng/ml
PC12 cells = experiment: Reversal of TS-induced neuroprotection by PI-3 kinase inhibitors in PC12 cells; assay type: cell-based; settings: inhibitor added after 24 hours, viability 24 hours later (DAPI)
Akt kinase [2] = experiment: Immunodetection of activated Akt in PC12 cells; assay type: cell-based; settings: LY294002 1 μM preincubation
Protocol: PC12 cells were deprived of serum for 24-48 hours, stimulated with TS, TS-F or LTR for 2, 5 or 10 minutes and immediately lysed with 2% SDS. In studies using the PI-3 kinase inhibitor, LY294002 (LY), cells were pre-treated with the inhibitor (1 μM) for 30 min prior to the addition of TS-F or TS. The proteins in the cell lysate were separated in SDS-10% polyacrylamide gels, transferred to nitrocellulose membrane (Bio-Rad) and the phosphorylated form of protein kinase Akt was detected with phospho-Akt (Ser 473) antibody (New England BioLabs, Beverly, Mass.), followed by alkaline phosphatase-conjugated secondary antibody (Promega, Madison, Wis.). Bands corresponding to phospho-Akt (60 kDa) were quantified using a scanning densitometer (Bio-Rad).

human Schwann cells = experiment: Serum withdrawal-induced apoptosis of Schwann cells (DAPI); assay type: cell-based; settings: LY294002 before CD 500 ng/ml

`O=c1cc(N2CCOCC2)oc2c(-c3ccccc3)cccc12` [LY294002] was tested, and the “inhibition of CD-induced Akt phosphorylation in Schwann cells” value (Akt kinase [1]) was “inhibited”, the “inhibition of CD-induced Akt phosphorylation in Schwann cells” value (Akt kinase [1]; listed as Ly294002) was “blocked CD-induced Akt activation” and the “reversal of survival-promoting activity of TS-F, NGF or TS-F+CNTF in PC12 cells” value (PC12 cells) was “induced apoptosis in PC12 cells maintained in TS-F or NGF; also recorded: less effective in reversing the protection of TS-F+CNTF than of TS-F only; also recorded: reversal of the survival-promoting activity of TS”. The “inhibition of TS- or TS-F-induced Akt phosphorylation in PC12 cells” value (Akt kinase [2]) was “completely blocked TS-F-induced Akt phosphorylation; also recorded: prevents TS-induced serine phosphorylation of Akt kinase”, the “inhibition of TS- or TS-F-induced Akt phosphorylation in PC12 cells” value (Akt kinase [2]; listed as LY) was “completely blocked TS-F-induced phosphorylation of Akt kinase” and the “inhibition of TS/CD-induced survival of serum starved Schwann cells” value (human Schwann cells) was “inhibited the protective activity of CD”. The “inhibition of TS/CD-induced survival of serum starved Schwann cells” value (human Schwann cells; listed as Ly294002) was “inhibited TS-induced survival of serum starved Schwann cells”.

From patent publication US20090117593A1, “T. Cruzi-derived neurotrophic agents and methods of use therefor” (Tufts University, priority 2006, published 2009)
